Holding throughout (test): PRISMA enrichment of interactor (LFQ) in peptide spot vs all other peptide spots (log2 fold change); higher = stronger / more specific binding of the interactor to the peptide
The target of experiment [1] is SF3B4, Q15427. As for the experimental part:
(§1)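 PRISMA: 15-aa overlapping tiles (offset 8 aa) of 60 microproteins, plus SOS1/GLUT1 control peptides, were spot-synthesized on cellulose membranes in triplicate. Membranes were incubated with benzonase-treated HEK293T lysate, and bound proteins were identified by LC-MS/MS with LFQ. Enrichment is the log2 fold change of each protein in one spot versus all other spots. Only interactors passing the significance cutoff are listed.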

The chains behind the UniProt entries cited, without tags or fusion partners.
TARDBP, Q13148, UniProt Q13148, whole entry: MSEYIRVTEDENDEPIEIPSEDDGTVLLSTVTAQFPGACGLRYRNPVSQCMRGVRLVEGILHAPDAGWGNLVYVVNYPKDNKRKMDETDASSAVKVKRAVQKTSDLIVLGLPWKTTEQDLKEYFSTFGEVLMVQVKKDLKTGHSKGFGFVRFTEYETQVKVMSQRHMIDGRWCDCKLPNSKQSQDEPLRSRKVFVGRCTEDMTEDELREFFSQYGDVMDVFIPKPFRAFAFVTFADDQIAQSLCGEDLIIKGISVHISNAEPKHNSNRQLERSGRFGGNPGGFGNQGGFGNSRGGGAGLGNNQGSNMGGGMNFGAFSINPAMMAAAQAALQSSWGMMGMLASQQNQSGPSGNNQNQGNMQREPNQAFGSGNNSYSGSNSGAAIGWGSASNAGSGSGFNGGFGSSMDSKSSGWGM
TRAPPC5, Q8IUR0, UniProt Q8IUR0, whole entry: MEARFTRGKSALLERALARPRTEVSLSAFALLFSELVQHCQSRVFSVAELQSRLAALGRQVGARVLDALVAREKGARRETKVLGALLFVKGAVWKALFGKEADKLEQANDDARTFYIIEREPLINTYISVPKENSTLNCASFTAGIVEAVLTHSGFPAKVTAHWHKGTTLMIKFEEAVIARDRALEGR
DCTN1, Q14203, UniProt Q14203, whole entry: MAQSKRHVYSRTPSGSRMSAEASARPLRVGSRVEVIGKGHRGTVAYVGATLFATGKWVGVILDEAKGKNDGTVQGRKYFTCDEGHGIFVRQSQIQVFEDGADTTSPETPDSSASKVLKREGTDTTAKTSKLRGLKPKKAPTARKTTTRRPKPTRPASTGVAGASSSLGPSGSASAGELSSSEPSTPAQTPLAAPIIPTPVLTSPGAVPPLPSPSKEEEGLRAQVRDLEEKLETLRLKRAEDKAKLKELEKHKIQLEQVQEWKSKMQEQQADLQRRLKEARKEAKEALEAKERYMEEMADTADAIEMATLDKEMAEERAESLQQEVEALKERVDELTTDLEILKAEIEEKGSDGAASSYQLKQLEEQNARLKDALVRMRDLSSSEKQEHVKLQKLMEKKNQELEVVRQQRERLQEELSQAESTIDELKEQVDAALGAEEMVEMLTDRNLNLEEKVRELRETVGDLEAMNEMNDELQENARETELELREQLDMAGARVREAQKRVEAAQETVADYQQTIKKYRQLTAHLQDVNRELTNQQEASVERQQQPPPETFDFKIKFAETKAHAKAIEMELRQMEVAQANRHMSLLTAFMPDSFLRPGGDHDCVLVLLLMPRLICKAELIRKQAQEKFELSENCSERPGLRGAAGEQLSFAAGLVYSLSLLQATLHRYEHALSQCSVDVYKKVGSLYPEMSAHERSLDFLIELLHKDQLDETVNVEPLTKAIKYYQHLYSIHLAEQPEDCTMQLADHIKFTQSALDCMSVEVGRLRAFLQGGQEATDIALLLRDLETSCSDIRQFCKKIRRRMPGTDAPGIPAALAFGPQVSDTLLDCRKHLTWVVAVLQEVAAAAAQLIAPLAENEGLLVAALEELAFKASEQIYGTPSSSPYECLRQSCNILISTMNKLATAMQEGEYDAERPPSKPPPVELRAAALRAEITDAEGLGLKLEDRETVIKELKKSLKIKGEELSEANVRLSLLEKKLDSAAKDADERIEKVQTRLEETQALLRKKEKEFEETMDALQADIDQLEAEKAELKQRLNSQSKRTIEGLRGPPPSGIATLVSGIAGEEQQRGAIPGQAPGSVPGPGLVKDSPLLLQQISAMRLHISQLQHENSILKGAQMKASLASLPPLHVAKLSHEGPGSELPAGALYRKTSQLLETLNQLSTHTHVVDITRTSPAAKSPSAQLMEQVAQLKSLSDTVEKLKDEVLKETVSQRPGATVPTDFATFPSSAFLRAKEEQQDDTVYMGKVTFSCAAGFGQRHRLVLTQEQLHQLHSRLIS
EIF3K, Q9UBQ5, UniProt Q9UBQ5, whole entry: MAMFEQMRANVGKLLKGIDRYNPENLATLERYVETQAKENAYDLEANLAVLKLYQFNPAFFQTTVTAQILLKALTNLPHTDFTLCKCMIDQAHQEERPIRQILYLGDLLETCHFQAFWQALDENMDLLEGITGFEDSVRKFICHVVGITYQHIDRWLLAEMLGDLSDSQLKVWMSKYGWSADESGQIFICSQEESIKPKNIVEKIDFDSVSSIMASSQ
HIST1H1E, P10412, UniProt P10412, whole entry: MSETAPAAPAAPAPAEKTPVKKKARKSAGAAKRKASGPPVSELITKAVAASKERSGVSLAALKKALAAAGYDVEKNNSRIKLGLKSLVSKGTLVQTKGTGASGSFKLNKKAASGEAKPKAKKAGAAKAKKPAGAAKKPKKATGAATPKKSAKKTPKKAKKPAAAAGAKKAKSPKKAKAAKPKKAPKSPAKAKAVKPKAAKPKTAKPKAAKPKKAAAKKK
KHDRBS1, Q07666, UniProt Q07666, whole entry: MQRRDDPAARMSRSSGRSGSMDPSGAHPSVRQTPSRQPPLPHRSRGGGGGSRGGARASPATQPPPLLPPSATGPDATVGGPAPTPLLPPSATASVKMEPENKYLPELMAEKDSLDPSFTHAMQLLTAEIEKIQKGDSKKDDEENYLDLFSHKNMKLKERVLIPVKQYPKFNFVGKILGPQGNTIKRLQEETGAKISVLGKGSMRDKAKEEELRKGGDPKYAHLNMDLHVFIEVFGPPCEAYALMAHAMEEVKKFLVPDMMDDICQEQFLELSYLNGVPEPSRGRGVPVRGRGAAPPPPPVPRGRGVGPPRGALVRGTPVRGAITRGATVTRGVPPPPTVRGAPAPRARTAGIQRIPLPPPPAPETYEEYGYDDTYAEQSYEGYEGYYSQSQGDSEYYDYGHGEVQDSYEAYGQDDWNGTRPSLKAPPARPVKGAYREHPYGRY
LRPAP1, P30533, UniProt P30533, whole entry: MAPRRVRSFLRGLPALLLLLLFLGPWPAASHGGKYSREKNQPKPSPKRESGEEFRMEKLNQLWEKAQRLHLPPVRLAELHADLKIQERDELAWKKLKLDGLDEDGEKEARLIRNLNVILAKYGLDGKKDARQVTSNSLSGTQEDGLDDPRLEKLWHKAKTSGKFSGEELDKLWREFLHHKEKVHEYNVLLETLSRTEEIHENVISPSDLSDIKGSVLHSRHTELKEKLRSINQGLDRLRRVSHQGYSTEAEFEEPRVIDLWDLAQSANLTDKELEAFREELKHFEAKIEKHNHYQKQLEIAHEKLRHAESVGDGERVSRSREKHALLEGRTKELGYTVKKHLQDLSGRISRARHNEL
MED12, Q93074, UniProt Q93074, whole entry: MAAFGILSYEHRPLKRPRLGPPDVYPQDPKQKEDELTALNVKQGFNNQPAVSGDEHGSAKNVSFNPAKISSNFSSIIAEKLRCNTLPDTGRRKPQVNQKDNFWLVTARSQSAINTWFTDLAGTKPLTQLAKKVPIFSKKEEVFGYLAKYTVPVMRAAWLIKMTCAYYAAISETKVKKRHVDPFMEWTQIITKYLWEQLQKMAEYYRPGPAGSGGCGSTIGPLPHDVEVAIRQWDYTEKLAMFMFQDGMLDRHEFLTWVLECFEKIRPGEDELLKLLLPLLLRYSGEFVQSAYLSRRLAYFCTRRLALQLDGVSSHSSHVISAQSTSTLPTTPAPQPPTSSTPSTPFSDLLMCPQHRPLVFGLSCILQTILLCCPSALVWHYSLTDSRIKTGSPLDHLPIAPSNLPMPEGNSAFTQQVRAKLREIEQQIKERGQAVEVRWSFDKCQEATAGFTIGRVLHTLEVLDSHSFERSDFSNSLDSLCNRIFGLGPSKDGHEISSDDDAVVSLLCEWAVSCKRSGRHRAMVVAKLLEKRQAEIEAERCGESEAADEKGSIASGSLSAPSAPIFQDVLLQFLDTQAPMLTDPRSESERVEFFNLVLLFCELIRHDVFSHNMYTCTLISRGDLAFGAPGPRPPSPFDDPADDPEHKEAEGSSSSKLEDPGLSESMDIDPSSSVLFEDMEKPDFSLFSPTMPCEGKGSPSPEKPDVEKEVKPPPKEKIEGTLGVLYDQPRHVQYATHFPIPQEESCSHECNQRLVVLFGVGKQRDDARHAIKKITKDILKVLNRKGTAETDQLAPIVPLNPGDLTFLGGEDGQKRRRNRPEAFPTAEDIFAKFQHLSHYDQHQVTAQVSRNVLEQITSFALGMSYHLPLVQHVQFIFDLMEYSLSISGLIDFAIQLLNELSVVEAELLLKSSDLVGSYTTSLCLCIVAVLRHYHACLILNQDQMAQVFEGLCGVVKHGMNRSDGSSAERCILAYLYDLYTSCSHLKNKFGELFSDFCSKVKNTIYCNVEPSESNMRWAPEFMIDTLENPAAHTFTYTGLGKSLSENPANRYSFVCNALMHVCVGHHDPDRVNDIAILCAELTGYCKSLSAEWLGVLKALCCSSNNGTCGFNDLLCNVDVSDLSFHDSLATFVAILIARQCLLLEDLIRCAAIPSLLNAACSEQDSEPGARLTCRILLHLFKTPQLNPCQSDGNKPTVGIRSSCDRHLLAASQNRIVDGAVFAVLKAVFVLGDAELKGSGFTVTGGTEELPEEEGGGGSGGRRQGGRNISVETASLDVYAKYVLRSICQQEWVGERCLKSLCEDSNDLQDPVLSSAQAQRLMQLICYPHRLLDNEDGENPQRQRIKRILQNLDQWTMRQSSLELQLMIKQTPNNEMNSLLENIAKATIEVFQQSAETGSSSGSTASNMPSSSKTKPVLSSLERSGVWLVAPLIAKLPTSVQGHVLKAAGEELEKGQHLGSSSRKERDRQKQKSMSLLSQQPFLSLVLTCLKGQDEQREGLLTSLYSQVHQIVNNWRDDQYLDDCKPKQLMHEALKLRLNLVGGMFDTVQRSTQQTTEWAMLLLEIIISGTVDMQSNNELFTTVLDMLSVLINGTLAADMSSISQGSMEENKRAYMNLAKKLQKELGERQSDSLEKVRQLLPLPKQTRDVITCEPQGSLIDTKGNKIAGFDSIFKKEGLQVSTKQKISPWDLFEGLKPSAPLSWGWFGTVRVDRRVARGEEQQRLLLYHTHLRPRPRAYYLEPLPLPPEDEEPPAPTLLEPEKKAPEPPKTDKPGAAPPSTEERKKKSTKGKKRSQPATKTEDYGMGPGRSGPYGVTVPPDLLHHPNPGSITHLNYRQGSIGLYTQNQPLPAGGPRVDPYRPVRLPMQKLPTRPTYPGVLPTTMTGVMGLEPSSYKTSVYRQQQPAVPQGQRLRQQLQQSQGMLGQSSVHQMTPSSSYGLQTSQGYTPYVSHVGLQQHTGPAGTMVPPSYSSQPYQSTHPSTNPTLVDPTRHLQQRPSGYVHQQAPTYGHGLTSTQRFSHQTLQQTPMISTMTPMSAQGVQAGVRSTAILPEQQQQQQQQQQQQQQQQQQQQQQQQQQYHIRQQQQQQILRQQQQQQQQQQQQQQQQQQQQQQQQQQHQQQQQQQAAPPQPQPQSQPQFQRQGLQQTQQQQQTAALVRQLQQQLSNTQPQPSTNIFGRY
SET, Q01105, UniProt Q01105, whole entry: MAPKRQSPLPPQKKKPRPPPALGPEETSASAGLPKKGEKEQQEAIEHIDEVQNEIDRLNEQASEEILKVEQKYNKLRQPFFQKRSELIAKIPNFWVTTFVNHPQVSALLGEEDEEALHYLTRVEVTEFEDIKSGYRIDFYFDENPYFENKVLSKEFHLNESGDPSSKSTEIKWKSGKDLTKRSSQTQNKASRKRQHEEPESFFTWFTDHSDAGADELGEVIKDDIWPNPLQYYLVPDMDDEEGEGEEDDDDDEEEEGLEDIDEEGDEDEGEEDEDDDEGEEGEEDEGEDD
SRSF1, Q07955, UniProt Q07955, whole entry: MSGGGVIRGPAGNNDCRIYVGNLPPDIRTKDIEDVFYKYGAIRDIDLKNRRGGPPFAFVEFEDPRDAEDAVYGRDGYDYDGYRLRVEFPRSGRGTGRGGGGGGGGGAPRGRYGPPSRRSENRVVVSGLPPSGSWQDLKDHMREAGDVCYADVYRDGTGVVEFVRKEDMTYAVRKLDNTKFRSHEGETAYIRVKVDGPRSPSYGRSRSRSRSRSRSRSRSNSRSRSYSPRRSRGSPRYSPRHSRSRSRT
SMN2, Q16637, UniProt Q16637, whole entry: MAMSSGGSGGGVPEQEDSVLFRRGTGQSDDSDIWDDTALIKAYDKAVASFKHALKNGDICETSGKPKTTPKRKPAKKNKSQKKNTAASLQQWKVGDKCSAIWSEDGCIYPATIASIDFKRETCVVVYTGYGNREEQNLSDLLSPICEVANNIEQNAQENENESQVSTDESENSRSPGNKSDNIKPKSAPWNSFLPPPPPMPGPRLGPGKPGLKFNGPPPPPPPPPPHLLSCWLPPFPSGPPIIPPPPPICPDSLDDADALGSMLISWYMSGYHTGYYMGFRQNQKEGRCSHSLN
YY1, P25490, UniProt P25490, whole entry: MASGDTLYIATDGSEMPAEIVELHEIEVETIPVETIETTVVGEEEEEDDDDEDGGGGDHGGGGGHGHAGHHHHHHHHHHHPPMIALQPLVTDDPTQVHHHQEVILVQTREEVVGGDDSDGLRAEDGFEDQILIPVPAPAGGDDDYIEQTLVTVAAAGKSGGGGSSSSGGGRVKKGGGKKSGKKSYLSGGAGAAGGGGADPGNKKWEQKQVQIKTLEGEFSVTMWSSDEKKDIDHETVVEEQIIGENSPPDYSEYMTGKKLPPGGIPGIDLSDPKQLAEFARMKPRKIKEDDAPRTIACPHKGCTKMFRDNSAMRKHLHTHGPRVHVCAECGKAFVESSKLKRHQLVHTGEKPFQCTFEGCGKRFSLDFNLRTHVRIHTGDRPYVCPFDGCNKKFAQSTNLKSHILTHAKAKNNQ

The target of experiment [2] is SPTLC1, O15269. How it is done: as §1
In experiment [3] the target is TARDBP, Q13148. How it is done:
as §1

Experiment [4] concerns the target TRAPPC5, Q8IUR0. How it is done:
as §1

Experiment [5] deals with VRK1, Q99986. How it is done: as §1
The target of experiment [6] is ZC3H14, Q6PJT7. As for the experimental part:
as §1

Experiment [7] addresses ZNF281, Q9Y2X9. As for the experimental part: as §1
Experiment [8] deals with AIMP2, Q13155. How it is done:
as §1

The target of experiment [9] is ANP32A, P39687. How it is done:
as §1

The target of experiment [10] is C7orf50, Q9BRJ6. As for the experimental part:
as §1

The target of experiment [11] is CALU, O43852. How it is done: as §1
Experiment [12] concerns the target CDKN2AIP, Q9NXV6. As for the experimental part:
as §1

Experiment [13] deals with DCTN1, Q14203. How it is done:
as §1

Experiment [14] concerns the target DTYMK, P23919. How it is done:
as §1

Experiment [15] addresses EIF3K, Q9UBQ5. As for the experimental part: as §1
For experiment [16], the target named is EIF4G3, O43432. How it is done: as §1
For experiment [17], the target named is ERLIN1, O75477. As for the experimental part:
as §1

The target in experiment [18] is HIST1H1E, P10412. How it is done:
as §1

The target in experiment [19] is IGLC3, P0DOY3. As for the experimental part: as §1
For experiment [20], the target named is KHDRBS1, Q07666. How it is done:
as §1

Experiment [21] addresses LRPAP1, P30533. As for the experimental part: as §1
For experiment [22], the target named is MED12, Q93074. How it is done:
as §1

The target of experiment [23] is MRPL46, Q9H2W6. As for the experimental part:
as §1

Experiment [24] addresses NAA35, Q5VZE5. As for the experimental part: as §1
Experiment [25] deals with NOC4L, Q9BVI4. As for the experimental part: as §1
Experiment [26] concerns the target PACSIN2, Q9UNF0. How it is done: as §1
Substrate in experiment [27]: PC, P11498
As for the experimental part:
as §1

Experiment [28] deals with PI4KA, P42356. How it is done:
as §1

The target in experiment [29] is PJA2, O43164. How it is done:
as §1

Experiment [30] concerns the target RBM3, P98179. As for the experimental part: as §1
In experiment [31] the target is RPP38, P78345. How it is done:
as §1

The target in experiment [32] is SEPTIN7, Q16181. How it is done:
as §1

Experiment [33] concerns the target SET, Q01105. How it is done:
as §1

In experiment [34] the target is SRSF1, Q07955. As for the experimental part: as §1
In experiment [35] the target is SRSF2, Q01130. As for the experimental part: as §1
Experiment [36] concerns the target STT3A, P46977. As for the experimental part: as §1
For experiment [37], the target named is TOMM34, Q15785. How it is done: as §1
The target of experiment [38] is UTP20, O75691. As for the experimental part: as §1
In experiment [39] the target is AK4, P27144. How it is done: as §1
The target in experiment [40] is BZW1, Q7L1Q6. As for the experimental part: as §1
The target in experiment [41] is CCDC59, Q9P031. As for the experimental part: as §1
Experiment [42] addresses CHAMP1, Q96JM3. As for the experimental part: as §1
Experiment [43] deals with FADS1, O60427. As for the experimental part: as §1
Experiment [44] addresses FUBP3, Q96I24. How it is done:
as §1

For experiment [45], the target named is HIRIP3, Q9BW71. How it is done:
as §1

Experiment [46] concerns the target HMGN2, P05204. As for the experimental part:
as §1

For experiment [47], the target named is HMGN4, O00479. How it is done: as §1
The target of experiment [48] is HSDL1, Q3SXM5. As for the experimental part: as §1
Experiment [49] concerns the target MARCKS, P29966. How it is done:
as §1

Experiment [50] has as its target MRPL11, Q9Y3B7. As for the experimental part: as §1
In experiment [51] the target is MTPAP, Q9NVV4. As for the experimental part:
as §1

Experiment [52] has as its target NOP56, O00567. How it is done: as §1
Experiment [53] deals with PCM1, Q15154. How it is done:
as §1

The target in experiment [54] is PPHLN1, Q8NEY8. How it is done: as §1
Experiment [55] has as its target PSMD8, P48556. How it is done: as §1
Experiment [56] deals with RAB2A, P61019. As for the experimental part: as §1
The target in experiment [57] is RABL3, Q5HYI8. How it is done:
as §1

Experiment [58] has as its target SF3A1, Q15459. As for the experimental part:
as §1

Experiment [59] has as its target SF3B5, Q9BWJ5. How it is done: as §1
Experiment [60] deals with SMN2, Q16637. How it is done:
as §1

Experiment [61] concerns the target TFIP11, Q9UBB9. As for the experimental part:
as §1

The target in experiment [62] is THOC3, Q96J01. As for the experimental part: as §1
Experiment [63] addresses YY1, P25490. How it is done:
as §1

Some of the results follow. Only hits are listed; about a third recur on repeated control peptides.

On to IHSGGDLTCHCEQLL [LINC01128], for which the “PRISMA enrichment of interactor (log2)” value in [1] was 4.97; in [2], 4.51; in experiment [3], 8.1; in experiment [4], 7.46; in [5], 5.43; in experiment [6] it was 8.12. In experiment [7], the “PRISMA enrichment of interactor (log2)” value came to 5.61.

In the case of AHRSTARTPAPCGTR [SLCO5A1], the “PRISMA enrichment of interactor (log2)” value is 5.1 in experiment [8]; 7.14 in experiment [9]; 13 in [10]; 4.68 in experiment [11]; 7.28 in experiment [12]; 5.63 in experiment [13]. The “PRISMA enrichment of interactor (log2)” value in [14] was found to be 5.74; in experiment [15] it was 4.21; in [16], 4.43; in experiment [17], 6; in experiment [18], 5.75; in experiment [19] it was 4.39. In addition, the “PRISMA enrichment of interactor (log2)” value in experiment [20] turned out to be 5.6; in [21], 4.45; in [22] it was 4.4; in [23] it was 5.97; in experiment [24], 4.45; in experiment [25], 4.41. Moreover, the “PRISMA enrichment of interactor (log2)” value turned out to be 4.34 in experiment [26]; 6.34 in experiment [27]; 5.56 in experiment [28]; 4.87 in [29]; 5.92 in [30]; 4.5 in experiment [31]. Also, the “PRISMA enrichment of interactor (log2)” value in [32] amounted to 4.15; in [33] it was 5.11; in experiment [34], 5.63; in [35] it was 5.01; in experiment [36], 7.76; in experiment [37] it was 4.73. The “PRISMA enrichment of interactor (log2)” value in experiment [38] came to 6.88.

Take SVKFQSQSKQKSIEE [MKKS_2]: the “PRISMA enrichment of interactor (log2)” value in [39] turned out to be 4.65; in [40] it was 6; in [41], 5.88; in experiment [42] it was 7.14; in experiment [43], 4.06; in experiment [44], 4.91. Besides, the “PRISMA enrichment of interactor (log2)” value in [45] is 6.25; in experiment [46], 5.1; in [47], 4.4; in [48], 5.09; in experiment [49], 4.3; in experiment [50] it was 5.86. Moreover, the “PRISMA enrichment of interactor (log2)” value in experiment [51] came to 6.61; in experiment [52] it was 8.64; in experiment [53], 5.21; in experiment [54], 5.24; in experiment [55], 5.52; in [56], 5.36. Besides, the “PRISMA enrichment of interactor (log2)” value in experiment [57] worked out at 6.49; in [58] it was 4.86; in experiment [1], 4.2; in experiment [59], 4.3; in [60], 4.05; in [61] it was 4.94. For the same molecule, the entries for the “PRISMA enrichment of interactor (log2)” value in [62] and in [63] were 4.83 and 10.1, respectively.

The values are drawn from the supplement of paper PMC10032668.
